Where two headings read alike, the source gives them in different places. Some of these results come from one statement about several compounds together.
Key:
Type in all cases: in vivo
[1] = tested on: Phytophthora infestans; conditions: tomato seedling (variety: Patio), 500 ppm, sprayed on leaves and stems, inoculated after air-drying, 1 day at 23° C. then 4 days in greenhouse, visual
[2] = tested on: Phytophthora infestans; conditions: tomato seedling (variety: Patio), 200 ppm, sprayed on leaves and stems, inoculated after air-drying, 1 day at 23° C. then 4 days in greenhouse, visual
[3] = tested on: Phytophthora infestans; conditions: tomato seedling (variety: Patio), 200 ppm, irrigation 20 ml per pot, inoculated 7 days after treatment, 1 day at 23° C. then 4 days in greenhouse, visual

C#CCOc1c(F)cc(C(=O)N[C@@H]2CCCC[C@@H]2C)cc1F (relative stereo) [Compound 55, cis-N-(2-methylcyclohexyl)-3,5-difluoro-4-(2-propynyloxy)benzamide]
≤ 30%: lesion areas in the seedlings treated as compared with the lesion areas in seedlings without the treatment [1] | lesion areas in the seedlings treated as compared with the lesion areas in seedlings without treatment [2] | lesion areas in the seedlings treated as compared with the lesion areas in seedlings without treatment [3]

C#CCOc1c(OC)cc(C(=O)NC2CCCC2C)cc1OC (stereo not drawn) [Compound 68, N-(2-methylcyclopentyl)-3,5-dimethoxy-4-(2-propynyloxy)benzamide]
≤ 30%: lesion areas in the seedlings treated as compared with the lesion areas in seedlings without the treatment [1] | lesion areas in the seedlings treated as compared with the lesion areas in seedlings without treatment [2] | lesion areas in the seedlings treated as compared with the lesion areas in seedlings without treatment [3]

C#CCOc1c(OC)cc(C(=O)NC(C)C2(O)CCCCC2)cc1OC (stereo not drawn) [Compound 116, N-(1-(1-hydroxycyclohexyl)ethyl)-3,5-dimethoxy-4-(2-propynyloxy)benzamide]
≤ 30%: lesion areas in the seedlings treated as compared with the lesion areas in seedlings without the treatment [1] | lesion areas in the seedlings treated as compared with the lesion areas in seedlings without treatment [2] | lesion areas in the seedlings treated as compared with the lesion areas in seedlings without treatment [3]

C#CCOc1ccc(C(=O)N[C@@H]2CCCC[C@H]2C)cc1OC (relative stereo) [Compound 24, trans-N-(2-methylcyclohexyl)-4-(2-propynyloxy)-3-methoxybenzamide]
≤ 30%: lesion areas in the seedlings treated as compared with the lesion areas in seedlings without the treatment [1] | lesion areas in the seedlings treated as compared with the lesion areas in seedlings without treatment [2] | lesion areas in the seedlings treated as compared with the lesion areas in seedlings without treatment [3]

C#CCOc1ccc(C(=O)NC2CCCCC2C)cc1F (stereo not drawn) [Compound 34, N-(2-methylcyclohexyl)-3-fluoro-4-(2-propynyloxy)benzamide]
≤ 30%: lesion areas in the seedlings treated as compared with the lesion areas in seedlings without the treatment [1] | lesion areas in the seedlings treated as compared with the lesion areas in seedlings without treatment [2] | lesion areas in the seedlings treated as compared with the lesion areas in seedlings without treatment [3]
